In article PMC7295574 one finds binding data, which are given here for 2 molecules.

For assay [1], the target named is T1, TMEM95 entire ectodomain, monomeric biotinylated bait (mouse) (UniProt P0DJF3).
T1 sequence (chain, biotinylated (site not stated)): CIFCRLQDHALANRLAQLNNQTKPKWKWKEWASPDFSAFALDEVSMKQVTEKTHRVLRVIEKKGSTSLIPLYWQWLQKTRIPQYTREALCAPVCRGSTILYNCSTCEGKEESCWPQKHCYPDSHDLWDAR
Kind of assay: AVEXIS (avidity-based extracellular interaction screening); biotinylated monomeric baits, dialyzed against HBS, immobilised on streptavidin-coated 96-well plates; pentameric beta-lactamase-tagged preys incubated one hour; washed with HBS/0.1% Tween-20; nitrocefin hydrolysis read as absorbance at 485 nm.

Assay [2] addresses T2, CD200R entire ectodomain, biotinylated bait (rat) (UniProt Q9ES58).
T2 sequence (chain, biotinylated (site not stated)): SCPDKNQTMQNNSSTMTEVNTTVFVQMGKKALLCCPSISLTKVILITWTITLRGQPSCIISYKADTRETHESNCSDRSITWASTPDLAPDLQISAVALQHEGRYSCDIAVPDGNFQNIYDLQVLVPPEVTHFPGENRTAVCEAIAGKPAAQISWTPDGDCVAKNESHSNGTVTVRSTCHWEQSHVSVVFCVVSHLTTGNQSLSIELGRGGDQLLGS
The description is as above.

These are yes or no findings as the source states them, for the method shown. Some binding calls cover weakened binding; strength is not graded here. Sequences can lack the tags named with a protein.

B1: IZUMO1 entire ectodomain, pentameric beta-lactamase-tagged prey (domain or fragment, UniProt Q9D9J7 22-319)
chain: CIKCDQFVTDALKTFENTYLNDHLPHDIHKNVMRMVNHEVSSFGVVTSAEDSYLGAVDENTLEQATWSFLKDLKRITDSDLKGELFIKELLWMLRHQKDIFNNLARQFQKEVLCPNKCGVMSQTLIWCLKCEKQLHICRKSLDCGERHIEVHRSEDLVLDCLLSWHRASKGLTDYSFYRVWENSSETLIAKGKEPYLTKSMVGPEDAGNYRCVLDTINQGHATVIRYDVTVLPPKHSEENQPPNIITQEEHETPVHVTPQTPPGQEPESELYPELHPELYPELIPTVAQNPEKKMKTR
For B1, the binding entry in assay [1] is reported as “no binding”.

B2: CD200 entire ectodomain, pentameric beta-lactamase-tagged prey (domain or fragment, UniProt P04218 31-232)
chain: QVEVVTQDERKLLHTTASLRCSLKTTQEPLIVTWQKKKAVGPENMVTYSKAHGVVIQPTYKDRINITELGLLNTSITFWNTTLDDEGCYMCLFNMFGSGKVSGTACLTLYVQPIVHLHYNYFEDHLNITCSATARPAPAISWKGTGSGIENSTESHSHSNGTTSVTSILRVKDPKTQVGKEVICQVLYLGNVIDYKQSLDKG
Consider B2, for which the binding result in assay [1] is on record as “no binding”; in assay [2] it was “binds”.
